Source: patent US20230233567A1, “BELVARAFENIB FOR USE IN CANCER TREATMENT” (Hanmi Pharm. Co., Ltd., priority 2020, published 2023)
For at least one compound, name, drawing or mass did not settle the structure.

Tested on: 187 kinases
Experiment: Kinase selectivity panel
Type: biochemical
Details: hits CCSFR1, DDR1, DDR2

In the case of `Cc1ccc2c(Nc3cccc(Cl)c3F)nccc2c1NC(=O)c1csc2c(N)ncnc12` [Belvarafenib], the “Kinase selectivity (#inh >80% at 1 μM)” value is reported as 3/187 (CCSFR1, DDR1, DDR2).
